Hit rate of the full screen: of about 400,000 compounds, about 13,000 (3.2%) were called active. Inconclusive means that the source gave no clear call. Such entries were picked first, then a sample of the others. The call rests on the fitted dose curve; in most records, active means well fitted cell-killing curve with a large enough effect; inconclusive means small, poorly fitted or top-dose-only effect, or effect the other way; inactive means flat fitted curve, though single readings scatter. Potencies of inconclusive entries are doubtful fits and often do not repeat.
Test: qHTS assay for MDR1-selective chemotherapeutics: Primary screen using the drug-selected MDR subline cells KB-V1; further: nearly all actives have a fitted effect of over 60% in size
Details: KB-V1 MDR cells viability, CellTiter-Glo, 72 h; activity change, negative = cytotoxicity: at 46.1 µM (top of the series)
Procedure, shortened: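 Cells of the MDR subline KB-V1 are plated, dosed with compound at multiple concentrations, and incubated 72 h at 37 degrees C; CellTiter-Glo is then added and luminescence read after 10 min.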
On the % scale 0 is the no-effect control and ±100 the full control effect; potency means the concentration at half of the fitted maximal effect.

Row | Structure (SMILES) | activity change, negative = cytotoxicity | Potency
1 | O=C(CSc1nnc(COc2ccc(Cl)cc2)o1)N1c2ccccc2CCc2ccccc21 | inactive: 0% | 
2 | Cc1nc2ccc(NC(=O)c3cc(S(=O)(=O)N4CCOCC4)ccc3C)cc2s1 |  | inconclusive: 16.4 µM [cytotoxic, single point]
3 | CCN(CC)CCn1c(NCc2cccc(OC)c2)nc2ccccc21 | inactive: -27.4% | 
4 | COc1ccc(OC)c(S(=O)(=O)N2CCC(C(=O)NCc3ccc4c(c3)OCO4)CC2)c1 |  | inconclusive: 32.6 µM [cytotoxic, partial curve, poor fit]
5 | Cc1cc(C)cc(NC(=O)CCCc2nc(-c3ccco3)no2)c1 | inactive: 3.97% | 
6 | NC(=O)C1(N2CCCCC2)CCN(Cc2ccccc2Cl)CC1 |  | inconclusive: 29.1 µM [cytotoxic, single point]
7 | O=C(Cc1ccccc1)NC(NC(=O)Cc1ccccc1)c1cccc([N+](=O)[O-])c1 | inactive: -12.8% | 
8 | C=CCNC(=O)COc1ccc(Oc2ccccc2)cc1 |  | inconclusive: 29.1 µM [cytotoxic, single point]
9 | CC(=O)NC(c1cccs1)c1cc(Br)c2cccnc2c1O (stereo unspecified) |  | inconclusive: 29.1 µM [cytotoxic, single point]
10 | COc1cccc(NC(=O)CN(C)C(=O)c2cccnc2Sc2ccc(C)c(C)c2)c1 |  | inconclusive: 32.6 µM [cytotoxic, single point]
11 | Cc1ccc(-c2nnc(Nc3ccccc3)c3ccccc23)cc1S(=O)(=O)NCC1CCCO1 (stereo unspecified) |  | inconclusive: 25.9 µM [cytotoxic, single point]
12 | O=[N+]([O-])c1ccc(NC(=S)N2CCc3ccccc3C2)cc1 |  | active: 23.1 µM
13 | O=C(NCc1ccccc1F)c1ccc(CSc2nc3cccnc3n2Cc2ccccc2)cc1 |  | inconclusive: 0.0058 µM [rising, full curve, poor fit]
14 | CC(C)N(Cc1ccccc1)C(=O)COC(=O)c1ccccc1SCC(=O)N1CCCC1 |  | inconclusive: 29.1 µM [cytotoxic, single point]
15 | C/C(=N\NC(=O)c1cc(Cl)ccc1O)c1ccc(Br)s1 |  | active: 20.6 µM
16 | O=C(NC(=S)NCc1ccccc1)c1ccc2c(c1)OCO2 | inactive: 1.26% | 
17 | COc1cc(/C=N/O)ccc1OCc1ccc([N+](=O)[O-])cc1 |  | inconclusive: 18.4 µM [cytotoxic, partial curve, poor fit]
18 | CCCN(Cc1cc2cc(C)ccc2[nH]c1=O)C(=O)c1cccc(OC)c1 |  | active: 7.31 µM
19 | Cc1ccc(N(C(=O)c2csnn2)C(C(=O)NC2CCCC2)c2ccccn2)c(C)c1 (stereo unspecified) |  | inconclusive: 23.1 µM [cytotoxic, single point]
20 | NC(=O)C1(N2CCCCC2)CCN(CC(=O)Nc2ccc(Oc3ccccc3)cc2)CC1 |  | active: 13 µM
21 | O=C(/C(=C/c1ccc(Cl)cc1)c1nc2ccccc2[nH]1)c1cccs1 |  | inconclusive: 1.84 µM [cytotoxic, partial curve, poor fit]
22 | CCCSC(=S)c1c(C)[nH]n(-c2ccccc2)c1=O |  | inconclusive: 29.1 µM [cytotoxic, partial curve, poor fit]

Row | Structure (SMILES) | activity change, negative = cytotoxicity | Potency
23 | CCOc1ccc(NC(=O)/C(=C\c2ccc(OC(C)=O)c(OC)c2)NC(C)=O)cc1 |  | inconclusive: 9.2 µM [rising, single point]
24 | COC(=O)c1c(N)n(-c2ccc(OC)c(OC)c2)c2nc3ccccc3nc12 | inactive: 0% | 
25 | Cc1ccc(C(=O)NCCSc2ccccc2)cc1S(=O)(=O)Nc1ccccc1 | inactive: -9.21% | 
26 | CC(C(=O)OCC(=O)Nc1cccc(S(=O)(=O)N2CCOCC2)c1)N1C(=O)c2ccccc2C1=O (stereo unspecified) |  | inconclusive: 20.6 µM [rising, single point]
27 | CCN(CC)S(=O)(=O)c1ccc(NC(=O)C2CC(=O)N(c3ccc4c(c3)OCCO4)C2)cc1 (stereo unspecified) |  | inconclusive: 29.1 µM [cytotoxic, single point]
28 | N=c1c2c(n(Cc3ccc(Cl)c(Cl)c3)c3c1CCC3)CCCC2 | inactive: 0% | 
29 | COc1ccc(NC(=O)/C(C#N)=C\c2ccc(-c3cc(C(=O)O)ccc3C)o2)cc1 |  | inconclusive: 29.1 µM [rising, single point]
30 | CCn1c(C)nc2cc(C(=O)N/N=C(\C)c3ccccc3O)ccc21 |  | inconclusive: 20.6 µM [cytotoxic, partial curve]
31 | CC(OC(=O)c1ccc(Cl)c(S(N)(=O)=O)c1)C(=O)NCc1ccc2c(c1)OCO2 (stereo unspecified) |  | inconclusive: 13 µM [rising, partial curve, poor fit]
32 | N=C1C(c2nc3ccccc3s2)=C(O)CN1NC(=O)c1ccc([N+](=O)[O-])cc1 |  | active: 18.4 µM
33 | CCC(=O)N1CCN(CCN=CC2=C(O)CC(c3ccc(OC)cc3)CC2=O)CC1 (stereo unspecified) | inactive: 0% | 
34 | Cc1ccc(-c2csc(C(C)(O)c3cccc(F)c3)n2)cc1C (stereo unspecified) | inactive: 18.2% | 
35 | COc1ccc(C2/C(=C(/O)c3ccc(C)cc3)C(=O)C(=O)N2C)c(OC)c1 (stereo unspecified) |  | inconclusive: 18.4 µM [cytotoxic, partial curve]
36 | Cc1ccc(CNC(=O)Cc2ccc(-n3cccc3)cc2)cc1 |  | active: 2.31 µM
37 | COc1ccc(C2=Nc3ccccc3N(C(=O)Cc3cc(OC)cc(OC)c3)C2C(=O)NC(C)C)cc1 (stereo unspecified) |  | inconclusive: 6.51 µM [cytotoxic, partial curve]
38 | O=S(=O)(c1ccc(F)cc1)N1CCC(c2nc3ccccc3[nH]2)CC1 |  | inconclusive: 20.6 µM [cytotoxic, single point]
39 | C=CC[C@@H](CC(=O)N[C@@H](CO)Cc1ccccc1)C(=O)N[C@H](COC(=O)[C@@H](CC=C)Cc1ccc(F)cc1)C(C)(C)C |  | inconclusive: 1.16 µM [cytotoxic, full curve, poor fit]
40 | N#Cc1ccc(CSc2nnc(Cc3cccs3)n2Cc2ccco2)cc1 |  | inconclusive: 32.6 µM [cytotoxic, single point]
41 | COc1ccc(-c2csc(C(O)c3ccc(F)c(OC)c3)n2)cc1 (stereo unspecified) |  | inconclusive: 11.6 µM [cytotoxic, partial curve, poor fit]
42 | CCOC(=O)c1cnn(CCOC(=O)c2ccccc2)c1NC(=O)c1ccccc1 |  | active: 10.3 µM
43 | Cc1nn(-c2ccccc2)c(C)c1/C=N/n1cnnc1 |  | inconclusive: 23.1 µM [cytotoxic, single point]
44 | COC(=O)[C@@]12C[C@@H](CC(=O)NCc3ccc(C)o3)C(=O)N(CCc3ccc(OC)c(OC)c3)C1=CCC(C)(C)C2 |  | active: 18.4 µM

Row | Structure (SMILES) | activity change, negative = cytotoxicity | Potency
45 | O=c1c2ccccc2nc(/C=C/c2cccnc2)n1CCc1ccccc1 |  | inconclusive: 9.2 µM [cytotoxic, partial curve]
46 | CCOC(=O)C1CCN(C(=O)Cn2cccc2C(=O)c2ccccc2)CC1 |  | active: 20.6 µM
47 | C/C=C\C(=O)Nc1cccc(C2=NOC3(C2)C[C@H](C(N)=O)N(C(=O)/C=C/CC)C3)c1 (stereo partly specified) |  | inconclusive: 25.9 µM [rising, single point]
48 | NC(Cc1ccc(Cl)cc1)c1csc(Nc2ccc(C(=O)c3ccccc3)cc2)n1 (stereo unspecified) |  | inconclusive: 29.1 µM [cytotoxic, single point]
49 | COc1ccccc1NC(=O)Cn1cc(C(=O)c2ccco2)c2ccccc21 | inactive: -35.9% | 
50 | c1cncc(COC2CCCN(Cc3nc(-c4cccs4)no3)C2)c1 (stereo unspecified) |  | inconclusive: 16.4 µM [cytotoxic, partial curve, poor fit]
51 | COc1cc2c(cc1OC)C(c1cc3ccc(C)cc3[nH]c1=O)N(C(=O)c1ccco1)CC2 (stereo unspecified) |  | inconclusive: 23.1 µM [cytotoxic, single point]
52 | CCN(CC)CCNC(=O)CNC(=O)c1nn(-c2ccc(OC)cc2)c(=O)c2ccccc12 |  | inconclusive: 16.4 µM [rising, partial curve, poor fit]
53 | CCC(C(=O)Nc1cc(F)ccc1F)n1nc(C)c2c(C)n(-c3ccc(C)cc3)nc2c1=O (stereo unspecified) |  | inconclusive: 32.6 µM [cytotoxic, partial curve, poor fit]
54 | CCc1ccccc1Nc1nc(N)nc(COC(=O)c2cccn2C)n1 |  | active: 14.6 µM
55 | COc1ccccc1-c1sc2cc3c(cc2c1C#CC1(O)CCCCC1)OCO3 | inactive: 4.46% | 
56 | C/C(=N\NC(=S)NCc1ccccc1)c1ccc(Cl)cc1 |  | inconclusive: 20.6 µM [cytotoxic, single point]
57 | COc1ccc(-c2nnc(NC(=O)CS(=O)(=O)c3ccc(F)cc3)o2)cc1 |  | inconclusive: 29.1 µM [cytotoxic, single point]
58 | CSc1nc2ccc(NC(=O)C3CC(=O)N(Cc4ccccc4)C3)cc2s1 (stereo unspecified) |  | inconclusive: 25.9 µM [cytotoxic, partial curve, poor fit]
59 | Cc1cc(C)c2c(=O)cc(CSc3n[nH]c(C)n3)[nH]c2c1 |  | inconclusive: 29.1 µM [rising, single point]
60 | Cc1ccc(S(=O)(=O)NCC(=O)N/N=C/c2ccc(Cl)cc2)cc1 |  | inconclusive: 20.6 µM [cytotoxic, single point]
61 | CSc1ccccc1C(=O)N(CC1CCCO1)c1c(N)n(Cc2ccccc2)c(=O)[nH]c1=O (stereo unspecified) | inactive: 10.2% | 
62 | O=[N+]([O-])c1cccc(C=NN=C2c3ccccc3-c3ccccc32)c1 |  | active: 20.6 µM
63 | O=C(Nc1cccc(Cl)c1Cl)c1csc([C@@H]2O[C@H](CO)[C@H](O)[C@H](O)[C@H]2O)n1 |  | inconclusive: 29.1 µM [cytotoxic, single point]
64 | COc1ccc(N(CC2CO2)S(=O)(=O)c2ccccc2)cc1 (stereo unspecified) | inactive: -31.4% | 
65 | CCOc1ccc(N(CC(=O)NC2CCCCC2)C(=O)CCCC(=O)Nc2ccccn2)cc1 |  | inconclusive: 16.4 µM [cytotoxic, single point]
66 | CC(=O)c1c(C(C)=O)c(C)n(-c2nc(-c3ccc(Br)cc3)c(C)s2)c1C |  | inconclusive: 29.1 µM [cytotoxic, single point]

Reference: PubChem BioAssay AID1347076 (National Center for Advancing Translational Sciences (NCATS), 2019)
